In all, about 300,000 compounds went through this assay and about 5,400 (1.8%) were called active. The inconclusive results got no clear call from the source; some entries with a clear call stand among them for comparison. The call rests on the fitted dose curve; tested in HEK293 cells. Where the call is inconclusive, the potency comes from a doubtful curve fit.
Experiment: qHTS for inhibitors of binding or entry into cells for Marburg Virus
Conditions: Marburg virus pseudotyped entry inhibition, cell reporter; activity change, negative = inhibition: at 37.8 µM (top of the series) unless noted
On the % scale 0 is the no-effect control and ±100 the full control effect; potency means the concentration at half of the fitted maximal effect.

| SMILES | Potency | activity change, negative = inhibition |
| --- | --- | --- |
| CC(=O)NC(=S)NNC(=O)c1ccc(Br)cc1 | inconclusive: 23.1 µM [inhibitor, partial curve, poor fit] |  |
| Cc1nnc(SCC(=O)N2CCCC2)n(N)c1=O |  | inactive: 9.7% [at 46.1 µM] |
| Cc1cccc(C)c1NS(=O)(=O)c1ccc(NC(=O)c2ccc(Cl)c([N+](=O)[O-])c2)cc1 |  | inactive: -7.5% |
| O=C(CSCc1c(F)cccc1Cl)NCc1ccco1 |  | inactive: -0.179% |
| CC(C)C(C)NC(=O)Cn1cnc2c(oc3ccccc32)c1=O (stereo unspecified) | inconclusive: 4.47 µM [activator, single point] |  |
| CCN1CCN(c2cc(N3CCc4ccccc4C3)c(F)cc2[N+](=O)[O-])CC1 | active: 14.1 µM |  |
| Cc1ccc(C)c(OCCn2c(-c3ccc(Cl)cc3)nc3ccccc3c2=O)c1C |  | inactive: -1.85% [at 46.1 µM] |
| CC(C)COc1ccc(CNC(=S)NCc2ccccc2)cc1 | inconclusive: 23.1 µM [inhibitor, single point] |  |
| Cc1sc2ncnc(SCC(=O)Nc3cccc(S(N)(=O)=O)c3)c2c1C | inconclusive: 35.5 µM [inhibitor, partial curve, poor fit] |  |
| COc1ccc(OCC(=O)OC2CCN(C)CC2)cc1 |  | inactive: -3.02% |
| O=C(CCl)Nc1cccc(-c2cnc3ccccc3n2)c1 | inconclusive: 6.31 µM [inhibitor, partial curve, poor fit] |  |
| COc1ccc(NS(=O)(=O)c2ccc(OC)c3ccccc23)cn1 | inconclusive: 8.91 µM [inhibitor, partial curve, poor fit] |  |
| COCCNC(=O)CSc1nnc(-c2ccccc2)c(-c2ccccc2)n1 | inconclusive: 31.6 µM [activator, single point] |  |
| CC1(C)c2ccccc2-n2c1cc1oc(=O)cc(O)c1c2=O |  | inactive: -6.88% [at 46.1 µM] |
| O=C(c1cccn2c(=O)c3cc(Br)ccc3nc12)N1CCN(c2ccccn2)CC1 |  | inactive: -4.78% |
| O=C(NC1CCCCCC1)c1cc2n(n1)C(C(F)(F)F)CC(c1ccco1)N2 (stereo unspecified) | inconclusive: 35.5 µM [inhibitor, single point] |  |
| Cc1ccc(C(=O)N/C(=C/c2ccco2)C(=O)OCN2C(=O)c3ccccc3C2=O)cc1 | inconclusive: 0.708 µM [activator, full curve, poor fit] |  |
| CN(C)c1ccc(/C=C2/C(=N\O)C3CCN2CC3)cc1 |  | inactive: 5.12% [at 46.1 µM] |
| Cc1cc2cc(CNC(=O)c3cccs3)ccc2n1C |  | inactive: 22.1% |
| Cc1ccccc1C(=O)c1cccn1CC(=O)NCc1ccccc1 | inconclusive: 10 µM [activator, partial curve, poor fit] |  |
| C=CCn1c(C)cc(C(=O)CSc2nnc(-c3cccc(S(=O)(=O)N(CC)CC)c3)o2)c1C |  | inactive: -21.6% [at 46.1 µM] |
| COc1cccc(C2CC3C(=O)C=CC2N3Cc2ccccc2)c1 (stereo unspecified) | inconclusive: 35.5 µM [inhibitor, single point] |  |
| CC(/C=C(\NC(=O)c1ccccc1)C(=O)N=Nc1c(O)[nH]c2ccc(C)cc12)=C\c1ccccc1 | inconclusive: 14.1 µM [inhibitor, single point] |  |

| SMILES | Potency | activity change, negative = inhibition |
| --- | --- | --- |
| c1ccc(-c2nnc(CSc3ccc4c(c3)OCCO4)o2)cc1 | inconclusive: 35.5 µM [activator, single point] |  |
| N=C1c2ccccc2CN1NC(=O)c1cccc(S(=O)(=O)N2CCOCC2)c1 |  | inactive: 0.791% |
| COc1ccc(OC)c(CN2CCCCCC2)c1 | inconclusive: 20 µM [inhibitor, partial curve, poor fit] |  |
| COc1ccc(CNC(=O)c2cc(-c3ccc(OC)cc3)on2)cc1 | inconclusive: 11.2 µM [activator, partial curve, poor fit] |  |
| Cc1cccc(Cn2c(C(C)(C)C)cc3cccnc32)c1 | inconclusive: 3.55 µM [inhibitor, partial curve, poor fit] |  |
| NS(=O)(=O)c1ccc(CNC(=O)c2cc(S(=O)(=O)N3CCOCC3)c(Cl)cc2Cl)cc1 | inconclusive: 3.16 µM [inhibitor, partial curve, poor fit] |  |
| CCOC(=O)Cn1c(=O)c2c(nc(Br)n2Cc2ccccc2)n(C)c1=O |  | inactive: 0.742% |
| CC(=O)c1cccc(NC(=O)COC(=O)COc2c(Cl)cc(Cl)c3ccc(C)nc23)c1 | inconclusive: 35.5 µM [activator, partial curve, poor fit] |  |
| CSc1ccc(C(=O)/C=C/c2ccc(N)cc2)cc1 | inconclusive: 7.31 µM [inhibitor, partial curve, poor fit] |  |
| Cc1cc(C)cc(C(=O)N2CCN(Cc3ccc4c(c3)OCO4)CC2)c1 | inconclusive: 1 µM [inhibitor, full curve, poor fit] |  |
| COc1ccc(N(C)S(=O)(=O)c2cccc(C(=O)NC3CCCCCC3)c2)cc1 | inconclusive: 4.47 µM [inhibitor, single point] |  |
| CCCNC(=O)c1cccc(Cn2nc(C)c(Br)c2C)c1 |  | inactive: -21.7% [at 46.1 µM] |
| Cc1ccccc1NC(=O)COC(=O)Cc1cccc(C(F)(F)F)c1 |  | inactive: 2.13% |
| CS(=O)(=O)N1CC(C(=O)O)Oc2ccc(CC(=O)O)cc21 (stereo unspecified) | inconclusive: 14.1 µM [activator, single point] |  |
| CC(=O)c1c(CSc2ccccc2)oc2ccc(O)c(CN(C)C)c12 | inconclusive: 11.2 µM [inhibitor, partial curve, poor fit] |  |
| Cc1ccc(NC(=O)CN(C)S(=O)(=O)c2ccc3c(c2)n(C)c(=O)c(=O)n3C)cc1C |  | inactive: -3.5% [at 46.1 µM] |
| COc1cccc(C2C(C#N)=C(N)Oc3cc(C)n(Cc4ccccn4)c(=O)c32)c1OC (stereo unspecified) | inactive |  |
| CCn1nnc(NC(=O)c2ccccc2Br)n1 |  | inactive: 5.51% |
| COc1ccccc1/C=C/c1nc2ccccc2n1C(C)C |  | inactive: 12.3% [at 46.1 µM] |
| COc1ccc(CN(Cc2cc3cc4c(cc3[nH]c2=O)OCO4)C(=O)NC2CCCCC2)cc1 | inconclusive: 10 µM [inhibitor, partial curve, poor fit] |  |
| Cc1onc(-c2ccccc2Cl)c1C(=O)Nc1cccc2cccnc12 | inconclusive: 25.1 µM [inhibitor, single point] |  |
| Cc1ccc2nc3c(cc(C(=O)NCC4CCCO4)c(=N)n3C(C)C)c(=O)n2c1 (stereo unspecified) |  | inactive: 13.2% [at 46.1 µM] |
| COC(=O)Cc1[nH]n(-c2ccccc2)c(=O)c1C(C)=Nc1ccccc1 |  | inactive: 18.3% [at 46.1 µM] |

As a short view, part of the list above:

| SMILES | Potency | activity change, negative = inhibition |
| --- | --- | --- |
| CS(=O)(=O)N1CC(C(=O)O)Oc2ccc(CC(=O)O)cc21 (stereo unspecified) | inconclusive: 14.1 µM [activator, single point] |  |
| CC(=O)c1c(CSc2ccccc2)oc2ccc(O)c(CN(C)C)c12 | inconclusive: 11.2 µM [inhibitor, partial curve, poor fit] |  |
